Experimental data from paper PMC12430662.
Results are given in words; binding and its absence hold for the method and conditions named. For part of these data: Binding seen in cells or lysates may run through a third protein. Some entries that bind do so weakly or less than the wild type. Tags and fused reporters may be left off the sequences shown. Blank lines part the entries; values can stand above or below the binder they belong to.

How the values were obtained:
[1] = biological target: T1, ABI5-cLUC (Arabidopsis thaliana) (UniProt Q9SJN0); test: split reporter; luciferase complementation imaging; nLUC and cLUC fusions co-expressed in N. benthamiana leaves by Agrobacterium infiltration; after 2 days 1 mM luciferin sprayed, 5-10 min dark, CCD imaging
T1 sequence: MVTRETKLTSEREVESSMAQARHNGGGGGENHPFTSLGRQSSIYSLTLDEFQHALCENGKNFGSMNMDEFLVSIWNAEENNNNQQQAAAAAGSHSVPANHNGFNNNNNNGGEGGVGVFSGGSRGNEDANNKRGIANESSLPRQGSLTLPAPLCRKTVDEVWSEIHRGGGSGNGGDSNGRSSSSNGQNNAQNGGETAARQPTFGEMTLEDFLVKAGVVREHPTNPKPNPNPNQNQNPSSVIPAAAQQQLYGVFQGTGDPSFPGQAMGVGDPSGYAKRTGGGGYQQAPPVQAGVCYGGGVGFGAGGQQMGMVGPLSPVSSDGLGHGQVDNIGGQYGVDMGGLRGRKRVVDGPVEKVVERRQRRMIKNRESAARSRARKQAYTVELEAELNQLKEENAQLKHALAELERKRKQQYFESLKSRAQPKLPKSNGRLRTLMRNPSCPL

[2] = biological target: T2, GST-ABI5 (Arabidopsis thaliana) (UniProt Q9SJN0); test: pull-down; 2 ug MBP-CPK2-His incubated with 1.5 ug ABI5-GST (or GST), captured on GST beads at 4 C for 1 h, washed four times with PBS, eluted with 10 mM reduced glutathione; immunoblot with anti-His and anti-GST; both purified
T2 sequence: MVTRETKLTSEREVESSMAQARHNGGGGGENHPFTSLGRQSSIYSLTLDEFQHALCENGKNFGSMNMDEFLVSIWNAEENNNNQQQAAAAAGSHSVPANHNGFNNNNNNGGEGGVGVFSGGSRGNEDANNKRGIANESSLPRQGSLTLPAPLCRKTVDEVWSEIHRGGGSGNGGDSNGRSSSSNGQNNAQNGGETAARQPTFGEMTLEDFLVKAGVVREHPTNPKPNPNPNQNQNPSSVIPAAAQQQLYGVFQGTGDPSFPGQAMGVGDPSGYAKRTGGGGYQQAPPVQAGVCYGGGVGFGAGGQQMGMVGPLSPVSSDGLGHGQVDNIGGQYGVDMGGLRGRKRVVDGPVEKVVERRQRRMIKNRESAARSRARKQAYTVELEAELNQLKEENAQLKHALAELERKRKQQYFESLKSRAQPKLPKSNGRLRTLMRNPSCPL

[3] = biological target: T3, ABI5-GFP (Arabidopsis thaliana) (UniProt Q9SJN0); test: co-IP; CPK2-HA co-expressed with ABI5-GFP or GFP in N. benthamiana leaves; extract in IP buffer (50 mM Tris-HCl pH 7.5, 150 mM NaCl, 0.5 mM EDTA, 0.5% Triton X-100) incubated with anti-GFP magnetic beads overnight at 4 C; immunoblot with anti-GFP and anti-HA
T3 sequence: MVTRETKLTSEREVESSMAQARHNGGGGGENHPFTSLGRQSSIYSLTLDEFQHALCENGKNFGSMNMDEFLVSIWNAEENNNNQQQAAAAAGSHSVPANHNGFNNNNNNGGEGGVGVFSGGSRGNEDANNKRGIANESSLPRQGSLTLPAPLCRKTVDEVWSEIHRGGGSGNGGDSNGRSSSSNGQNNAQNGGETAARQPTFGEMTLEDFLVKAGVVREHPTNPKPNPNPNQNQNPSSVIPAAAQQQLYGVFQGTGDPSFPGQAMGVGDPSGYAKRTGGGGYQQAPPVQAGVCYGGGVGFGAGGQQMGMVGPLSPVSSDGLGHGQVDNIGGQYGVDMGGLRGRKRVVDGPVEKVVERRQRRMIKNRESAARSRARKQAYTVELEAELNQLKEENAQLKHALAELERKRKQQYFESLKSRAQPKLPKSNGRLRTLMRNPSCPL

binding [1]: binds
B1: CPK2-nLUC (enzyme, UniProt Q38870 1-646)
chain: MGNACVGPNISGNGFLQTVTAAMWRPRIGAEQASSSSHGNGQVSKEAASEPATDQVQNKPPEPITMPSSKTNPETKLKPDLEIQPEEKKEKVLAEETKQKVVPEESKQEVPPEESKREVVVQPESAKPETKSESKPETTKPETTSETKPETKAEPQKPKHMRRVSSAGLRTESVLQRKTENFKEFYSLGRKLGQGQFGTTFLCLEKGTGNEYACKSISKRKLLTDEDVEDVRREIQIMHHLAGHPNVISIKGAYEDVVAVHLVMELCSGGELFDRIIQRGHYTERKAAELARTIVGVLEACHSLGVMHRDLKPENFLFVSREEDSLLKTIDFGLSMFFKPDEVFTDVVGSPYYVAPEVLRKRYGPESDVWSAGVIVYILLSGVPPFWAETEQGIFEQVLHGDLDFSSDPWPSISESAKDLVRKMLVRDPKRRLTAHQVLCHPWVQIDGVAPDKPLDSAVLSRMKQFSAMNKFKKMALRVIAESLSEEEIAGLKQMFKMIDADNSGQITFEELKAGLKRVGANLKESEILDLMQAADVDNSGTIDYKEFIAATLHLNKIEREDHLFAAFSYFDKDESGFITPDELQQACEEFGVEDARIEEMMRDVDQDKDGRIDYNEFVAMMQKGSIMGGPVKMGLENSISISLKH

binding [2]: binds
B2: MBP-CPK2-His (enzyme, UniProt Q38870 1-646)
chain: MGNACVGPNISGNGFLQTVTAAMWRPRIGAEQASSSSHGNGQVSKEAASEPATDQVQNKPPEPITMPSSKTNPETKLKPDLEIQPEEKKEKVLAEETKQKVVPEESKQEVPPEESKREVVVQPESAKPETKSESKPETTKPETTSETKPETKAEPQKPKHMRRVSSAGLRTESVLQRKTENFKEFYSLGRKLGQGQFGTTFLCLEKGTGNEYACKSISKRKLLTDEDVEDVRREIQIMHHLAGHPNVISIKGAYEDVVAVHLVMELCSGGELFDRIIQRGHYTERKAAELARTIVGVLEACHSLGVMHRDLKPENFLFVSREEDSLLKTIDFGLSMFFKPDEVFTDVVGSPYYVAPEVLRKRYGPESDVWSAGVIVYILLSGVPPFWAETEQGIFEQVLHGDLDFSSDPWPSISESAKDLVRKMLVRDPKRRLTAHQVLCHPWVQIDGVAPDKPLDSAVLSRMKQFSAMNKFKKMALRVIAESLSEEEIAGLKQMFKMIDADNSGQITFEELKAGLKRVGANLKESEILDLMQAADVDNSGTIDYKEFIAATLHLNKIEREDHLFAAFSYFDKDESGFITPDELQQACEEFGVEDARIEEMMRDVDQDKDGRIDYNEFVAMMQKGSIMGGPVKMGLENSISISLKH

binding [3]: binds
B3: CPK2-HA (enzyme, UniProt Q38870 1-646)
chain: MGNACVGPNISGNGFLQTVTAAMWRPRIGAEQASSSSHGNGQVSKEAASEPATDQVQNKPPEPITMPSSKTNPETKLKPDLEIQPEEKKEKVLAEETKQKVVPEESKQEVPPEESKREVVVQPESAKPETKSESKPETTKPETTSETKPETKAEPQKPKHMRRVSSAGLRTESVLQRKTENFKEFYSLGRKLGQGQFGTTFLCLEKGTGNEYACKSISKRKLLTDEDVEDVRREIQIMHHLAGHPNVISIKGAYEDVVAVHLVMELCSGGELFDRIIQRGHYTERKAAELARTIVGVLEACHSLGVMHRDLKPENFLFVSREEDSLLKTIDFGLSMFFKPDEVFTDVVGSPYYVAPEVLRKRYGPESDVWSAGVIVYILLSGVPPFWAETEQGIFEQVLHGDLDFSSDPWPSISESAKDLVRKMLVRDPKRRLTAHQVLCHPWVQIDGVAPDKPLDSAVLSRMKQFSAMNKFKKMALRVIAESLSEEEIAGLKQMFKMIDADNSGQITFEELKAGLKRVGANLKESEILDLMQAADVDNSGTIDYKEFIAATLHLNKIEREDHLFAAFSYFDKDESGFITPDELQQACEEFGVEDARIEEMMRDVDQDKDGRIDYNEFVAMMQKGSIMGGPVKMGLENSISISLKH
